Reference: publication PMC4772809, “Network of protein interactions within the Drosophila inner kinetochore” (Open Biology, 2016)
No constants are given. Whether binding was seen depends on the method and setting. Where a sequence is shown, tags or fusion partners need not be part of it.

Target: Nnf1a (yeast two-hybrid fusion) (Drosophila melanogaster)
Assay: two-hybrid; Matchmaker Gold, pGAD424 (GAL4 AD) and pGBT9 (GAL4 BD) fusions, mating of Y187-type and Y2H Gold strains or co-transformation of Y2H Gold (mutants); growth on selective plates

binding: no binding
B1: CENP-C residues 1–188 (yeast two-hybrid fusion) (domain or fragment, UniProt Q9VHP9 1-188)
chain: MSKPQNNDTLELDDILSQPVKDKERFAAFMMRKLAENKPAQNDNLFGNFKLDFDLDFEVPLIKKSQAKPKSKLPEVQPLGELVSKNSAATEKVNEPPVDQAPNENVPPRRSPTLSPNNRRSMRRSGNVPGSDKLRRHAIRRRSRSCGRQLLPEFEETVNLTRSISSPVNFLPEISSTPCTEKQKEEVA
